From patent US11541057B2, “Thienopyrimidinone NMDA receptor modulators and uses thereof” (Cadent Therapeutics, Inc., priority 2015, dated 2023)
Where “and” joins values, the source holds several entries; their conditions need not be identical. Equal values may be shown once. The name of at least one read-out is uncertain.

Sequences of proteins named here, by UniProt entry; tags and fusion partners are left off. Residues count along the entry.
UniProt Q13224, 27-1484: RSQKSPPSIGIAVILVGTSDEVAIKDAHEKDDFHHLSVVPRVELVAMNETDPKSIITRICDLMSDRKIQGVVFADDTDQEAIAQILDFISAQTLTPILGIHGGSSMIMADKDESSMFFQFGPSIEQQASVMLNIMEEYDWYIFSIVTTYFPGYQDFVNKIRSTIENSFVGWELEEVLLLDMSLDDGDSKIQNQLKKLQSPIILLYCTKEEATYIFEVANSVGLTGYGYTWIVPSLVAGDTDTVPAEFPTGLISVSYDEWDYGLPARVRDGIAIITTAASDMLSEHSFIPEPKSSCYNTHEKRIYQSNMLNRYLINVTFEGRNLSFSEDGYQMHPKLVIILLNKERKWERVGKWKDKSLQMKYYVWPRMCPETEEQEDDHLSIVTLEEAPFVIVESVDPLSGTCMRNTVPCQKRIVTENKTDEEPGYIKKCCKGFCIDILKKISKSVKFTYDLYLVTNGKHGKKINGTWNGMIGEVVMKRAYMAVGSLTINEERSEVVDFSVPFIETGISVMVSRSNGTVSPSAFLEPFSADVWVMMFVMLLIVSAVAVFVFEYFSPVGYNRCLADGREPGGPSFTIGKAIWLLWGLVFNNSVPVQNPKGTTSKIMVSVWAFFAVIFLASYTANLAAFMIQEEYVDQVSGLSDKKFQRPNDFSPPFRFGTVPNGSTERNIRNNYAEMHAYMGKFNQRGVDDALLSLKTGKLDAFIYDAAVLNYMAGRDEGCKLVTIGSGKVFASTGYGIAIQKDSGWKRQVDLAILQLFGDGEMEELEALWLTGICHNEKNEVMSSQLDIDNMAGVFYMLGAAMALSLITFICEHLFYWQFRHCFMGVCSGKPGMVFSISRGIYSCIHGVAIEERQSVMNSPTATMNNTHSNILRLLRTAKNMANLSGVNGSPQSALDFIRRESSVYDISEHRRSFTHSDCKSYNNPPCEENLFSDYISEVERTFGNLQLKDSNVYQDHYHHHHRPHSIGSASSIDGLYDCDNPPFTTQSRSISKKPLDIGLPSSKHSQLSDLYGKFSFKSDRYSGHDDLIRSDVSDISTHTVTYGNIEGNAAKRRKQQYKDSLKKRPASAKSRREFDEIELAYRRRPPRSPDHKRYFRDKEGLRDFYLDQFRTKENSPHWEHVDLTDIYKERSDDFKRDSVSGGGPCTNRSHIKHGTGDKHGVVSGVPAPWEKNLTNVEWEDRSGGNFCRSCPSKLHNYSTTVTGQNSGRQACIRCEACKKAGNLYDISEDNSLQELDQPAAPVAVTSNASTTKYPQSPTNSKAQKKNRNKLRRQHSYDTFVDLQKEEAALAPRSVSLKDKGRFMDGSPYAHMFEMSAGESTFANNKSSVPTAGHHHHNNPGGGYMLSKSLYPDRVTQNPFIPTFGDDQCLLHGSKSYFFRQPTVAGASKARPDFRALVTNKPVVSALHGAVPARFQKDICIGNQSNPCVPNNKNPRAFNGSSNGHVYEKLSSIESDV

Biological target: T1, NMDA receptor GRIN1/GRIN2B (NR2B) expressed in HEK293 cells (Homo sapiens, UniProt Q13224)
T1 construct: host or cells: HEK293
Experiment: Reversal of Ro 25-6981-mediated suppression of the Ca2+ response (fluo-8 fluorescence, FDSS) in HEK293 cells expressing GRIN1 and GRIN2B
Format: cell-based
Conditions: % reversal=100*(R−Rneg)/(Rpos−Rneg) of Ro 25-6981 suppression of co-agonist (glutamate/glycine) Ca2+ response, 10 min pre-incubation, compound concentration not given
Method: HEK293 cells with constructs conferring stable expression of the GRIN1 gene and tetracycline-inducible expression of the GRIN2B gene (Chantest, Cleveland, Ohio) are grown to ˜75% confluence in tissue culture flasks at 37° C., 5% CO2. NR2B expression is induced by overnight incubation with 0.3-0.4 μg/ml tetracycline in the presence of 2.5 mM ARL-15896 at 37° C., followed by moving to 30° C. for 3-5 hours. Cells are next harvested using TripleExpress™ (Life Technologies, Carlsbad, Calif.) according to the manufacturer's instructions, first removing culture medium, rinsing with Dulbecco's phosphate buffered saline (Ca^2+ and Mg^2+-free), and then adding the TripleExpress™ reagent. Harvested cells are spun down, washed twice in Ca^2+- and Mg^2+-free Hank's Balanced Salt Solution with 20 mM HEPES and 10 mM glucose, pH 7.4 (HHnoCa solution), and counted with viability assessed using Trypan Blue. […]
The assay is performed by first adding 10 μl solution from each well of the compound plate described above to the cell plate using a CyBiWell liquid handler (Analytik Jena AG, Jena, Germany), followed by 10 minutes pre-incubation in the dark. Cell plates are then loaded onto a Hamamatsu FDSS 6000 plate reader. After a 30-second baseline, 25 μl is added to each well from the co-agonist plate, and the fluorescence signal is recorded for another 2 minutes. […]

SMILES	Response Recovered (%)
O=C(Cn1cnc2scc(-c3ccncc3)c2c1=O)N1CCCC1 [Example 29, 3-[2-oxo-2-(pyrrolidin-1-yl)ethyl]-5-(pyridin-4-yl)-3H,4H-thieno[2,3-d]pyrimidin-4-one]	2% and 3%
Cc1ccc(-c2csc3ncn(CC(=O)N4CCCC4)c(=O)c23)cc1 [Example 25, 5-(4-methylphenyl)-3-[2-oxo-2-(pyrrolidin-1-yl)ethyl]-3H,4H-thieno[2,3-d]pyrimidin-4-one]	5% and 1%
